The results are deposited in PubChem (AID1053133; Broad Institute, 2014).

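Plate-reader measure of the Venus reporter marking one vaccinia stage in infected cells (the cell line is not named here); read time unknown.
The test concentration is not given here.
Percent change in Venus reporter signal; lower (more negative) values mean stronger inhibition of that viral stage.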

Values are in %.
The controls that fix the scale are not given here.
Common to all entries: measured here: Venus reporter, other viral stage.
Part of the compounds only, not a random draw; the main read-out is not listed here.

{"compound": "COc1cccc(C#Cc2ccc([C@H]3[C@H](C#N)N(C(=O)C4CCC4)[C@H]3CO)cc2)c1", "activity change (Venus) (%)": "-22.52"}
{"compound": "C[C@@H]1CN([C@@H](C)CO)S(=O)(=O)c2ccc(-c3ccccc3)cc2O[C@H]1CN(C)C(=O)C1CCCCC1", "activity change (Venus) (%)": "-42.69"}
{"compound": "COc1ccc(NC(=O)Nc2ccc3c(c2)C(=O)N([C@@H](C)CO)C[C@H](C)[C@@H](CN(C)Cc2ccccc2)OCCCC[C@@H](C)O3)cc1", "activity change (Venus) (%)": "-77.27"}
{"compound": "CO[C@H]1CN(C)C(=O)c2cc(NS(=O)(=O)c3cccc(F)c3)ccc2OC[C@H](C)N(Cc2cc(F)ccc2F)C[C@@H]1C", "activity change (Venus) (%)": "-49.51"}
{"compound": "O=C(NC1CCCC1)N1CCCCN2[C@H](CO)[C@H](c3ccc(/C=C/c4ccccc4)cc3)[C@H]2C1", "activity change (Venus) (%)": "-94.53"}
{"compound": "CS(=O)(=O)N1CC(=O)N2[C@H](CO)[C@H](c3ccc(C#CCC4CCCC4)cc3)[C@H]2C1", "activity change (Venus) (%)": "-84.68"}
{"compound": "Cc1noc(C)c1NC(=O)Nc1cccc2c1O[C@H](CN(C)Cc1ccc(Oc3ccccc3)cc1)[C@@H](C)CN([C@@H](C)CO)C2=O", "activity change (Venus) (%)": "-51.43"}
{"compound": "Cc1cccc(S(=O)(=O)N2C[C@@H]3N[C@H](C2)C3c2ccc(-c3cccnc3)cc2)c1", "stereo": "stereo partly shown", "activity change (Venus) (%)": "-72.63"}
{"compound": "Cc1cccc(S(=O)(=O)N2C[C@@H](O)COC[C@@H]3O[C@@H](CC(=O)Nc4ccc(-c5ccccc5)cc4)CC[C@H]32)c1", "activity change (Venus) (%)": "-34.76"}
{"compound": "COc1cccc(-c2ccc3c(c2)O[C@H](CN(C)C(=O)C2CCCCC2)[C@H](C)CN([C@H](C)CO)S3(=O)=O)c1", "activity change (Venus) (%)": "-62.7"}
{"compound": "CCCN(C)C[C@H]1OCCCC[C@@H](C)Oc2ccc(NC(=O)Nc3ccc(C(F)(F)F)cc3)cc2C(=O)N([C@H](C)CO)C[C@H]1C", "activity change (Venus) (%)": "-46.68"}
{"compound": "C[C@@H]1CN([C@@H](C)CO)S(=O)(=O)c2ccc(C3=CCCCC3)cc2O[C@@H]1CN(C)C(=O)C1CCCCC1", "activity change (Venus) (%)": "-26.37"}
{"compound": "COc1ccc2c3c(n(C)c2c1)[C@H](CO)N(Cc1ccc(F)cc1)CC31CCN(CC2CC2)CC1", "activity change (Venus) (%)": "-39.8"}
{"compound": "C[C@@H]1CN([C@@H](C)CO)C(=O)c2cc(NC(=O)CCC(F)(F)F)ccc2O[C@@H](C)CCCCO[C@@H]1CN(C)Cc1ccc2c(c1)OCO2", "activity change (Venus) (%)": "-32.82"}
{"compound": "C[C@@H]1CN([C@@H](C)CO)C(=O)Cc2cc(NC(=O)Cc3ccccc3)ccc2O[C@@H]1CN(C)Cc1ccc(C(F)(F)F)cc1", "activity change (Venus) (%)": "-25.84"}
{"compound": "C[C@@H]1CN([C@@H](C)CO)C(=O)Cc2cc(NC(=O)Cc3cn(C)c4ccccc34)ccc2O[C@H]1CN(C)CC1CCCCC1", "activity change (Venus) (%)": "-34.83"}
{"compound": "C[C@H](CO)N1C[C@H](C)[C@@H](CN(C)S(=O)(=O)c2ccc(F)cc2)OCCCC[C@H](C)Oc2ccc(NS(=O)(=O)c3ccc(Cl)cc3)cc2C1=O", "activity change (Venus) (%)": "-26.05"}
{"compound": "Cc1cccc(S(=O)(=O)N2CCCCN3[C@H](CO)[C@H](c4ccc(C#C[C@H](C)O)cc4)[C@H]3C2)c1", "activity change (Venus) (%)": "-63.55"}
{"compound": "C[C@@H]1CCCCO[C@@H](CN(C)Cc2ccccc2)[C@@H](C)CN([C@@H](C)CO)C(=O)c2cc(NC(=O)Nc3ccc4c(c3)OCO4)ccc2O1", "activity change (Venus) (%)": "-41.22"}
{"compound": "O=C(C[C@H]1CC[C@@H]2[C@H](COC[C@H](O)CN2Cc2cc(F)ccc2F)O1)NCc1ccc(Cl)cc1", "activity change (Venus) (%)": "-32.97"}
{"compound": "C[C@H]1CN([C@@H](C)CO)C(=O)c2ccccc2-c2ccccc2CO[C@H]1CN(C)Cc1cccc(C(F)(F)F)c1", "activity change (Venus) (%)": "-66.33"}
{"compound": "CCC(=O)N1CCCCN2[C@@H](CO)[C@@H](c3ccc(C#Cc4ccccc4F)cc3)[C@@H]2C1", "activity change (Venus) (%)": "-39.63"}
{"compound": "COC(=O)c1ccc(CN2CC(=O)N3[C@H](CO)[C@H](c4ccc(Br)cc4)[C@H]3C2)cc1", "activity change (Venus) (%)": "-78.15"}
{"compound": "Cc1noc(C)c1S(=O)(=O)N(C)C[C@@H]1OCCCC[C@@H](C)Oc2ccc(NS(=O)(=O)c3ccccc3)cc2C(=O)N([C@H](C)CO)C[C@H]1C", "activity change (Venus) (%)": "-54.82"}
{"compound": "O=C(C[C@H]1CC[C@H]2[C@@H](COC[C@@H](O)CN2Cc2ccc(Cl)cc2)O1)NCc1cccc(F)c1", "activity change (Venus) (%)": "-13.94"}
{"compound": "COc1ccc(-c2ccc(C3[C@@H]4CN(S(=O)(=O)c5cccc(C)c5)C[C@H]3N4)cc2)cc1", "stereo": "stereo partly shown", "activity change (Venus) (%)": "-84.43"}
{"compound": "C[C@H](CO)N1C[C@H](C)[C@@H](CN(C)S(=O)(=O)CC(F)(F)F)OCc2ccccc2-c2c(n(C)c3ccccc23)C1=O", "activity change (Venus) (%)": "-41.75"}
{"compound": "C[C@H](CO)N1C[C@H](C)[C@H](CN(C)C)Oc2cc(C#CCC3CCCC3)ccc2S1(=O)=O", "activity change (Venus) (%)": "-42.5"}
{"compound": "C[C@H]1CN([C@@H](C)CO)C(=O)c2cc(/C=C/c3ccccc3)cnc2O[C@@H]1CN(C)S(=O)(=O)c1cccs1", "activity change (Venus) (%)": "-35.53"}
{"compound": "Cc1noc(C)c1S(=O)(=O)Nc1ccc2c(c1)C(=O)N([C@@H](C)CO)C[C@H](C)[C@@H](CN(C)CC1CCCCC1)OCCCC[C@@H](C)O2", "activity change (Venus) (%)": "-57.39"}

The last 2 entries again:

| Compound | activity change (Venus) (%) |
|---|---|
| `C[C@H]1CN([C@@H](C)CO)C(=O)c2cc(/C=C/c3ccccc3)cnc2O[C@@H]1CN(C)S(=O)(=O)c1cccs1` | -35.53 |
| `Cc1noc(C)c1S(=O)(=O)Nc1ccc2c(c1)C(=O)N([C@@H](C)CO)C[C@H](C)[C@@H](CN(C)CC1CCCCC1)OCCCC[C@@H](C)O2` | -57.39 |